The record followed here is PMC6344599.

Amino acid sequences for entries named in this document (tags omitted).
UniProt Q8C863: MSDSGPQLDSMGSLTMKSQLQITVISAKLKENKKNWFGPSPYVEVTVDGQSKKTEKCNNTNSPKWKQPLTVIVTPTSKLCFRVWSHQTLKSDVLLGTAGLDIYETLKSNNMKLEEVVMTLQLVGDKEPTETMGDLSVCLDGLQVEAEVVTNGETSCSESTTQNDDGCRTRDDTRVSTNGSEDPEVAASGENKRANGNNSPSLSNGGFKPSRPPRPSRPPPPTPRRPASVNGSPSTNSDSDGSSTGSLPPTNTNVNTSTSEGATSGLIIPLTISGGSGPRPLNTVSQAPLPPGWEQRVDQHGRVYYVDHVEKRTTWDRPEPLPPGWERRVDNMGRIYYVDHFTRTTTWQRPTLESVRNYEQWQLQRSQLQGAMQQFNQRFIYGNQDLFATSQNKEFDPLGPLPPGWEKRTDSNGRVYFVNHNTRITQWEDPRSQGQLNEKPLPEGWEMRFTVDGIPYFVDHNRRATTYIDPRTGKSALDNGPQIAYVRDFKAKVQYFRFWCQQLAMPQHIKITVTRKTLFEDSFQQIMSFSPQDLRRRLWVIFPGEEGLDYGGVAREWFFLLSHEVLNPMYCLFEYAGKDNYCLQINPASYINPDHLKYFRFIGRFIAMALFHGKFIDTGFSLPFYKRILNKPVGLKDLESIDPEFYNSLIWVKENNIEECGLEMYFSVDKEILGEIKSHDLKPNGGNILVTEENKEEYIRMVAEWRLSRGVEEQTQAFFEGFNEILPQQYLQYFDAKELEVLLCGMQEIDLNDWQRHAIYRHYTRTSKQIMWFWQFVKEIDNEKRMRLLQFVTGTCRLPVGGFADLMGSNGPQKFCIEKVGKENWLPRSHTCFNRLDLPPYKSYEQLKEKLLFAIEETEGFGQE
UniProt Q9R1E0: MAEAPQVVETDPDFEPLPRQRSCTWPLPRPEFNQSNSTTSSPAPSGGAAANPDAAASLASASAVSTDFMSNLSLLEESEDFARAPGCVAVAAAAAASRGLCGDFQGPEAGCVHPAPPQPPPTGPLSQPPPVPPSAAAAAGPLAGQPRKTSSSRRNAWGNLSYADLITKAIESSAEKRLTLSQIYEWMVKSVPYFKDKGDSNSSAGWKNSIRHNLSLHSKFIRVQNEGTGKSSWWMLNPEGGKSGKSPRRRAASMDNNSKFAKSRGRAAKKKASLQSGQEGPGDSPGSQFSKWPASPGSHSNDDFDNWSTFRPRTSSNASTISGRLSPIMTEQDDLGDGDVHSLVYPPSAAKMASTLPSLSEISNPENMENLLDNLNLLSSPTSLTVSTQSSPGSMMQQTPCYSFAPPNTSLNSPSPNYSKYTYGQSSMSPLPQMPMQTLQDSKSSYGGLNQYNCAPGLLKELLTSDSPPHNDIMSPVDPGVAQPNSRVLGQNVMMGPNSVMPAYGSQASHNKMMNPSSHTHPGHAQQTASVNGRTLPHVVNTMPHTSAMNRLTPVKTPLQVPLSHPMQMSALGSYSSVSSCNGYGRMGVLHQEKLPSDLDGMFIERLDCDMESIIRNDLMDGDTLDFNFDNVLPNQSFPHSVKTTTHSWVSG

Assay [1] has as its target E3 ubiquitin ligase Itch (mouse (endogenous in splenic B cells of C57BL/6 mice)) (UniProt Q8C863). The assay can be described thus: co-IP; cell lysates incubated overnight at 4 °C with antibody, protein A/G magnetic beads, five washes with NP-40 lysis buffer, immunoblot; cells and precipitating antibody told only in Supplementary Figure 2d. (A western blot detects proteins with antibodies after separation by electrophoresis.)

Assay [2] shares this target. The assay can be described thus: co-IP; lysate of splenic B cells from 7~9-week-old C57BL/6 mice precipitated with anti-Itch antibodies or isotype control IgG, protein A/G magnetic beads, washes with NP-40 lysis buffer, immunoblot.

Results are given in words; binding and its absence hold for the method and conditions named. Binding seen in cells or lysates may run through a third protein. Some results given as binding are weak or reduced against the parent protein; the word gives no strength.

Take “transcription factor Foxo1 (from UniProt Q9R1E0 1-652)”: the binding result in assay [1] is “binds”.

B1: transcription factor JunB (protein, UniProt P09450 1-344)
chain: MCTKMEQPFYHDDSYAAAGYGRSPGSLSLHDYKLLKPTLALNLADPYRGLKGPGARGPGPEGSGAGSYFSGQGSDTGASLKLASTELERLIVPNSNGVITTTPTPPGQYFYPRGGGSGGGTGGGVTEEQEGFADGFVKALDDLHKMNHVTPPNVSLGASGGPQAGPGGVYAGPEPPPVYTNLSSYSPASAPSGGSGTAVGTGSSYPTATISYLPHAPPFAGGHPAQLGLSRGASAFKEEPQTVPEARSRDATPPVSPINMEDQERIKVERKRLRNRLAATKCRKRKLERIARLEDKVKTLKAENAGLSSAAGLLREQVAQLKQKVMTHVSNGCQLLLGVKGHAF
Take B1: the binding result in assay [2] was “binds”.
